Assay results as given in the supplement of paper PMC12823440, “Inhibitors supercharge kinase turnover through native proteolytic circuits” (Nature, 2025).
The other results are listed elsewhere or left out. The calls rarely recur for the same compound in another form.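 Kinases were expressed as nanoluciferase fusions in K562 cells and luminescence was read every 4 h between 2 and 18 h as percent of control, DMSO set to 100% and a positive control to 0%. A time point counts as decreased when the signal drops significantly (2 sigma). The hit call is the authors' own, does not follow from the count of time points alone, and its rule is not shown.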

The chains behind the UniProt entries cited, without tags or fusion partners. Where a name states a change or a piece, a line headed by the entry shows the natural chain unless it says otherwise.
UniProt P07949, whole entry, looked up: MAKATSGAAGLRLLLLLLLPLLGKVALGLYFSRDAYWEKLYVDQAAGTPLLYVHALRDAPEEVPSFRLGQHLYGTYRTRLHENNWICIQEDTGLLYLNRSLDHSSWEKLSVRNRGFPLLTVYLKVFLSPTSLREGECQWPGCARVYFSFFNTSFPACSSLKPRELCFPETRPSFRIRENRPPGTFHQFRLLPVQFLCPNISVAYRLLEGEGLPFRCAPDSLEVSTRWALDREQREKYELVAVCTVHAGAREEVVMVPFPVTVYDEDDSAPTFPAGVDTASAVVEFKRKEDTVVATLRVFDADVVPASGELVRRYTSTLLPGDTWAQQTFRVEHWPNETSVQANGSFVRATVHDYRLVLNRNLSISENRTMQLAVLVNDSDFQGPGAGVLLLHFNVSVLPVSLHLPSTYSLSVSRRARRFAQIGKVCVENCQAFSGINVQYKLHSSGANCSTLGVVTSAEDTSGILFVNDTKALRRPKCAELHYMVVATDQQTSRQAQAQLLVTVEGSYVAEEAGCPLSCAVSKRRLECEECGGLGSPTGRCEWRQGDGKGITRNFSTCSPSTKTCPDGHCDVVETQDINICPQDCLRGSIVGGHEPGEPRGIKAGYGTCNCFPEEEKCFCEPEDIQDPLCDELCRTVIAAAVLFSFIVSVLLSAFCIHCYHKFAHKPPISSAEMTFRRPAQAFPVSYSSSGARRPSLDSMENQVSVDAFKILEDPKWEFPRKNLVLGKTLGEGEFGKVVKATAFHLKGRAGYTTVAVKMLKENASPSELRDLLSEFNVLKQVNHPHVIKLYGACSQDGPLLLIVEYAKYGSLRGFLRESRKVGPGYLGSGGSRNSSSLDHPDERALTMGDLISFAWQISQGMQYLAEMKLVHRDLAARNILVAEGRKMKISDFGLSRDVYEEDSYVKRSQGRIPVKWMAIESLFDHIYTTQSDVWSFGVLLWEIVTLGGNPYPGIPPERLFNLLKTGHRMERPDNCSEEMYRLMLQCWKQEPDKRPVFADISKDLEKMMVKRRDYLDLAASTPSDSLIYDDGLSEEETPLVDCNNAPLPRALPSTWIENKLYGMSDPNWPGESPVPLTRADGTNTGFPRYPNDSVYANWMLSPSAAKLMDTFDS
UniProt P07949, whole entry M918T, looked up: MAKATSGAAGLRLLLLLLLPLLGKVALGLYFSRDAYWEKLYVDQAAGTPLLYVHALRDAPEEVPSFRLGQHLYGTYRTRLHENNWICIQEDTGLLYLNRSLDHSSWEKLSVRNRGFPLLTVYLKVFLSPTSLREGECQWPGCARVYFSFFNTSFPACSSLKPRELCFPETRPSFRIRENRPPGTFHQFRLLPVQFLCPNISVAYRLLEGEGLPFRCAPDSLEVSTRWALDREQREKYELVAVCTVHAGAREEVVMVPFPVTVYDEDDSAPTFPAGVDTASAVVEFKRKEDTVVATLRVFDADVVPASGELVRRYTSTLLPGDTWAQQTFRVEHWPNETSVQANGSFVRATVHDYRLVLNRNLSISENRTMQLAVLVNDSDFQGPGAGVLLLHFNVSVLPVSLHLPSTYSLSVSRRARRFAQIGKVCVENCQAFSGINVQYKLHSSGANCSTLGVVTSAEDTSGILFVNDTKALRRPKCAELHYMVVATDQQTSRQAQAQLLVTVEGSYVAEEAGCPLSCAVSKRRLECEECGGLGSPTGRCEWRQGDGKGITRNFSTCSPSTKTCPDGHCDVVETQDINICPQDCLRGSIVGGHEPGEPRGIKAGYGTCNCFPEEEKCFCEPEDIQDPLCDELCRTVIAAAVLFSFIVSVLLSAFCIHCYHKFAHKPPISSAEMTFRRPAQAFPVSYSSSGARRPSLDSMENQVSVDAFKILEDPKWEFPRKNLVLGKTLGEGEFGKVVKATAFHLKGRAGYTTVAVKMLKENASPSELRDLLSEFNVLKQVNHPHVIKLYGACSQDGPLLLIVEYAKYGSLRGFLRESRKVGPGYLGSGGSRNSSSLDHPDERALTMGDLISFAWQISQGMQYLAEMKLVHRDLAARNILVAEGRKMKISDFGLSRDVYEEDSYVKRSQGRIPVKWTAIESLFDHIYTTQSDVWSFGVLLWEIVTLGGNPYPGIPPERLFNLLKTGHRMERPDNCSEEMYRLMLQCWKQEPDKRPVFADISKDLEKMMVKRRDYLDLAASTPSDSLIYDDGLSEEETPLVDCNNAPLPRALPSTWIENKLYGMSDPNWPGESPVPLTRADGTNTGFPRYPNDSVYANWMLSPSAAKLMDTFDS
UniProt Q01974, whole entry: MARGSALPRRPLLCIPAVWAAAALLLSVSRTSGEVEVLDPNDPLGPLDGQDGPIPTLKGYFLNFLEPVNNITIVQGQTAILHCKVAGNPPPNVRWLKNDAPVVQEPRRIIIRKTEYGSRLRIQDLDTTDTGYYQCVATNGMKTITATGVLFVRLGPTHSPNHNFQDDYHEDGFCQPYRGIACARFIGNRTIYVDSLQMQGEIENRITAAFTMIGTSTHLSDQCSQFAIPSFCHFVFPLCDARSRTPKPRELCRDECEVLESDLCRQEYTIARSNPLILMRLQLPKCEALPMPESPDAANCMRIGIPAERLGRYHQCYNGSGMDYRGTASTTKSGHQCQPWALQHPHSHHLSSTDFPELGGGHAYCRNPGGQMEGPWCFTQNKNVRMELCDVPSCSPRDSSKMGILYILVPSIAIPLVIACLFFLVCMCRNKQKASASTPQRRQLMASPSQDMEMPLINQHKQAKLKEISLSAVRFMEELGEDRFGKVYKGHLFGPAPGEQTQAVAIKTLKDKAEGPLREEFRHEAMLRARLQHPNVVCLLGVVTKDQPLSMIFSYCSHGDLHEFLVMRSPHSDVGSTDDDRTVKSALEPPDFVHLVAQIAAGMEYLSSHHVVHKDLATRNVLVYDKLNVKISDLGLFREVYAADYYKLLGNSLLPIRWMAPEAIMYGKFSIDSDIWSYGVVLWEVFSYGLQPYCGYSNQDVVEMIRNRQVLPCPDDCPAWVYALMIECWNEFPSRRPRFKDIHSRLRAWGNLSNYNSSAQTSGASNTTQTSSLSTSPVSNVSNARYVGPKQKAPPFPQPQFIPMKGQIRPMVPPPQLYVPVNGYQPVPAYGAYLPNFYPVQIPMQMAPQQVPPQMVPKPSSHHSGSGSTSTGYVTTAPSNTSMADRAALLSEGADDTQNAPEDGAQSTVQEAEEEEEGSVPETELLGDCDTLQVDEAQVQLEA
UniProt Q9NYA1, whole entry: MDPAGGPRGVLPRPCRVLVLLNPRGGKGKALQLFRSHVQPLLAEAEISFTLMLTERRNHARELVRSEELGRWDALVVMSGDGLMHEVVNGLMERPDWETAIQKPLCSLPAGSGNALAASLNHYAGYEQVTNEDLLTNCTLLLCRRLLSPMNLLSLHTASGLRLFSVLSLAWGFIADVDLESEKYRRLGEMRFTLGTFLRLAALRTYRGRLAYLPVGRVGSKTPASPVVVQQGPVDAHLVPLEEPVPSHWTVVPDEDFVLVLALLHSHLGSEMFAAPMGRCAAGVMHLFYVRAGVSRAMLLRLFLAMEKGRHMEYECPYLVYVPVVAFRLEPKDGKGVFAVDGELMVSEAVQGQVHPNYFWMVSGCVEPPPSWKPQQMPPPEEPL
UniProt Q9Y6E0: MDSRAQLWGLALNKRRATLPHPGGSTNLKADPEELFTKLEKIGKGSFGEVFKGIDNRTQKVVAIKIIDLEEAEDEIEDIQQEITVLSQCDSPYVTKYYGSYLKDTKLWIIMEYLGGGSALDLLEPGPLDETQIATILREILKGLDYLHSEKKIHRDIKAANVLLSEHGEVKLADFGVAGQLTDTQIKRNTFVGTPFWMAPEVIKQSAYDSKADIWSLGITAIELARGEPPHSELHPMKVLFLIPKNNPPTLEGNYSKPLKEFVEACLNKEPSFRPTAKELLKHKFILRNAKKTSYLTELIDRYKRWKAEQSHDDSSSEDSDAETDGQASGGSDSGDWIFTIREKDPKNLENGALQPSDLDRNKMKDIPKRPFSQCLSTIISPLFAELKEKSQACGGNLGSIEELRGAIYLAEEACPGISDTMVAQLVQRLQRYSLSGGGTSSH
UniProt Q6PHR2: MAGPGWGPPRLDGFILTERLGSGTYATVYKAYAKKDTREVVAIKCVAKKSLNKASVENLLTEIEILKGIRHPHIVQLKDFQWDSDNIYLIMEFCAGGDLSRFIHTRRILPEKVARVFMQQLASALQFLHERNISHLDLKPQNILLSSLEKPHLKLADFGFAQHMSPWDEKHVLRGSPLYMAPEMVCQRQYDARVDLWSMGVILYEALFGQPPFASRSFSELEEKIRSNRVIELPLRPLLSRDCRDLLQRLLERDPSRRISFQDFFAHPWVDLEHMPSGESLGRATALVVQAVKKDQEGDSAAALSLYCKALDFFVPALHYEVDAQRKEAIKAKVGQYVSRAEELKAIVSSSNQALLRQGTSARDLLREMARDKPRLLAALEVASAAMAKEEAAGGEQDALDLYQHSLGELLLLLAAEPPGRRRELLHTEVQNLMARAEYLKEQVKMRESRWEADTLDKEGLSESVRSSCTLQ
UniProt P43403: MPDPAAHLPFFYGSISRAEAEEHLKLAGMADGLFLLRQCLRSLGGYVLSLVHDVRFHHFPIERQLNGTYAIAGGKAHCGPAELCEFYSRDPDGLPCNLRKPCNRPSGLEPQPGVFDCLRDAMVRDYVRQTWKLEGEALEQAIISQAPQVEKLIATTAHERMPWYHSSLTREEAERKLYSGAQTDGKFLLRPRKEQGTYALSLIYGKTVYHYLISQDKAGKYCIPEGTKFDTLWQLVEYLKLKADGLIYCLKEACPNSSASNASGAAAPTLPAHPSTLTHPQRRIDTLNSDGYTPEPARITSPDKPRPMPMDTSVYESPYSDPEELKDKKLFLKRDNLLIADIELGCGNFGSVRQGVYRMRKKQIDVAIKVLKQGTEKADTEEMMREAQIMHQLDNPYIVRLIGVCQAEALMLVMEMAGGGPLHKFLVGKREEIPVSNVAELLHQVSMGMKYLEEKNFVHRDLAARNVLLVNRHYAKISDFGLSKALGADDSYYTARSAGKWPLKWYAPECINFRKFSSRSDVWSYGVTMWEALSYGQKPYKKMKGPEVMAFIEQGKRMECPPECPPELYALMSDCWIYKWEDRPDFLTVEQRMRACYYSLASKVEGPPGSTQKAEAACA
UniProt P00519, whole entry: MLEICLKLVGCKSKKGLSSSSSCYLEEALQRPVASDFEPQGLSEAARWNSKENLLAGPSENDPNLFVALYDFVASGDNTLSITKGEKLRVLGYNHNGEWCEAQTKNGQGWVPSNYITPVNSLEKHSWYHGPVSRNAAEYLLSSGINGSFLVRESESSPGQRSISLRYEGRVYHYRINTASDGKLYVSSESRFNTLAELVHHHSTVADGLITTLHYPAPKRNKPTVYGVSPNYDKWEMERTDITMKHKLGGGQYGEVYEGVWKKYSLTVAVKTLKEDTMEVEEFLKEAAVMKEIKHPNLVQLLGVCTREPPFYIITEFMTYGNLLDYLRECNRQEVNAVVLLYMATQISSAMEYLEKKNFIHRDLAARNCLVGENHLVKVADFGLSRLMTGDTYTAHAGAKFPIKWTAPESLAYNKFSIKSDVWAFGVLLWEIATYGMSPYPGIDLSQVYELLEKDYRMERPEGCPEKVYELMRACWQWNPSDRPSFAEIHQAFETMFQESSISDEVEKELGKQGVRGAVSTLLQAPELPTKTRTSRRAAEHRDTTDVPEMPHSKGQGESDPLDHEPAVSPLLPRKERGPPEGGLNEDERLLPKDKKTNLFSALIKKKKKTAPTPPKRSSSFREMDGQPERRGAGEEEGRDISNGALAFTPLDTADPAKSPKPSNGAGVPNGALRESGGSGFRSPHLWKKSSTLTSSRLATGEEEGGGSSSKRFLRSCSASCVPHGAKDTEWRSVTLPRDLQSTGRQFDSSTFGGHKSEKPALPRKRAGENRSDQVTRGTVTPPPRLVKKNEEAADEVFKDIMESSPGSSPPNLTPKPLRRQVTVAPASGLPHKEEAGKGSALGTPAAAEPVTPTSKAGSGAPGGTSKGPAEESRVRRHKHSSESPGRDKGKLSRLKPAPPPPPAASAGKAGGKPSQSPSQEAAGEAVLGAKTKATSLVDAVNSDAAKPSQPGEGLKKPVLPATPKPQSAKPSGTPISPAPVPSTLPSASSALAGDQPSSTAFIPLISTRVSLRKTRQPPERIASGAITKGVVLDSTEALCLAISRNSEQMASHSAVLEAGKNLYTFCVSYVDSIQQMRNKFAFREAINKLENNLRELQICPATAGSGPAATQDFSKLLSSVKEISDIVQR

How the values were obtained:
Settings in all cases: K562; 2-18 h
RET = RET (UniProt P07949); assay: kinase-Nluc reporter destabilization hit call (1 = scored as downregulated) (binary); higher = compound decreases kinase abundance
[1] = biological target: RET_M918T (clone: RET_mut) (UniProt P07949); assay: as above
RIOK1 = RIOK1 (UniProt Q9BRS2); assay: as above
RIPK1 = RIPK1 (UniProt Q13546); assay: as above
RIPK2 = RIPK2 (UniProt O43353); assay: as above
ROR2 = ROR2 (UniProt Q01974); assay: as above
RPS6KA1 = RPS6KA1 (UniProt Q15418); assay: as above
SPHK1 = SPHK1 (UniProt Q9NYA1); assay: as above
SRC = SRC (UniProt P12931); assay: as above
STK24 = STK24 (UniProt Q9Y6E0); assay: as above
STK38 = STK38 (UniProt Q15208); assay: as above
SYK = SYK (UniProt P43405); assay: as above
TEC = TEC (UniProt P42680); assay: as above
TYK2 = TYK2 (UniProt P29597); assay: as above
ULK3 = ULK3 (UniProt Q6PHR2); assay: as above
YES1 = YES1 (UniProt P07947); assay: as above
ZAK = ZAK (UniProt Q9NYL2); assay: as above
ZAP70 = ZAP70 (UniProt P43403); assay: as above
ABL1 = ABL1 (UniProt P00519); assay: number of time points (of 5) at which kinase-Nluc abundance scored as decreased, DMSO-normalised (count); higher = more persistent destabilization
AKT1 = AKT1 (UniProt P31749); assay: as above

CC(C)(C)c1cc(O)ccc1O (10 µM)
inactive: kinase-Nluc reporter destabilization hit call (RET) 0 | kinase-Nluc reporter destabilization hit call [1] 0 | kinase-Nluc reporter destabilization hit call (RIOK1) 0 | kinase-Nluc reporter destabilization hit call (RIPK1) 0 | kinase-Nluc reporter destabilization hit call (RIPK2) 0 | kinase-Nluc reporter destabilization hit call (ROR2) 0 | kinase-Nluc reporter destabilization hit call (RPS6KA1) 0 | kinase-Nluc reporter destabilization hit call (SPHK1) 0 | kinase-Nluc reporter destabilization hit call (SRC) 0 | kinase-Nluc reporter destabilization hit call (STK24) 0 | kinase-Nluc reporter destabilization hit call (STK38) 0 | kinase-Nluc reporter destabilization hit call (SYK) 0 | kinase-Nluc reporter destabilization hit call (TEC) 0 | kinase-Nluc reporter destabilization hit call (TYK2) 0 | kinase-Nluc reporter destabilization hit call (ULK3) 0 | kinase-Nluc reporter destabilization hit call (YES1) 0 | kinase-Nluc reporter destabilization hit call (ZAK) 0 | kinase-Nluc reporter destabilization hit call (ZAP70) 0
0: number of time points (ABL1) | number of time points (AKT1)

C[C@@H](c1ccc(-c2ccccc2)c(F)c1)c1cc(NC(=N)N2CCOCC2)on1 [Rimacalib] (10 µM)
inactive: kinase-Nluc reporter destabilization hit call (RET) 0 | kinase-Nluc reporter destabilization hit call [1] 0 | kinase-Nluc reporter destabilization hit call (RIOK1) 0 | kinase-Nluc reporter destabilization hit call (RIPK1) 0 | kinase-Nluc reporter destabilization hit call (RIPK2) 0 | kinase-Nluc reporter destabilization hit call (ROR2) 0 | kinase-Nluc reporter destabilization hit call (RPS6KA1) 0 | kinase-Nluc reporter destabilization hit call (SPHK1) 0 | kinase-Nluc reporter destabilization hit call (SRC) 0 | kinase-Nluc reporter destabilization hit call (STK24) 0 | kinase-Nluc reporter destabilization hit call (STK38) 0 | kinase-Nluc reporter destabilization hit call (SYK) 0 | kinase-Nluc reporter destabilization hit call (TEC) 0 | kinase-Nluc reporter destabilization hit call (TYK2) 0 | kinase-Nluc reporter destabilization hit call (ULK3) 0 | kinase-Nluc reporter destabilization hit call (YES1) 0 | kinase-Nluc reporter destabilization hit call (ZAK) 0 | kinase-Nluc reporter destabilization hit call (ZAP70) 0
0: number of time points (ABL1) | number of time points (AKT1)

O=Nc1c(-c2c(O)[nH]c3ccc(I)cc23)[nH]c2ccccc12 [5-Iodo-indirubin-3'-monoxime] (10 µM)
inactive: kinase-Nluc reporter destabilization hit call (RET) 0 | kinase-Nluc reporter destabilization hit call [1] 0 | kinase-Nluc reporter destabilization hit call (RIOK1) 0 | kinase-Nluc reporter destabilization hit call (RIPK1) 0 | kinase-Nluc reporter destabilization hit call (RIPK2) 0 | kinase-Nluc reporter destabilization hit call (ROR2) 0 | kinase-Nluc reporter destabilization hit call (RPS6KA1) 0 | kinase-Nluc reporter destabilization hit call (SPHK1) 0 | kinase-Nluc reporter destabilization hit call (SRC) 0 | kinase-Nluc reporter destabilization hit call (STK24) 0 | kinase-Nluc reporter destabilization hit call (STK38) 0 | kinase-Nluc reporter destabilization hit call (SYK) 0 | kinase-Nluc reporter destabilization hit call (TEC) 0 | kinase-Nluc reporter destabilization hit call (TYK2) 0 | kinase-Nluc reporter destabilization hit call (ULK3) 0 | kinase-Nluc reporter destabilization hit call (YES1) 0 | kinase-Nluc reporter destabilization hit call (ZAK) 0 | kinase-Nluc reporter destabilization hit call (ZAP70) 0
0: number of time points (ABL1) | number of time points (AKT1)

Cn1cnc2c(F)c(Nc3ccc(Br)cc3Cl)c(C(=O)NOCCO)cc21 [Selumetinib (sulfate)] (10 µM)
inactive: kinase-Nluc reporter destabilization hit call (RET) 0 | kinase-Nluc reporter destabilization hit call [1] 0 | kinase-Nluc reporter destabilization hit call (RIOK1) 0 | kinase-Nluc reporter destabilization hit call (RIPK1) 0 | kinase-Nluc reporter destabilization hit call (RIPK2) 0 | kinase-Nluc reporter destabilization hit call (ROR2) 0 | kinase-Nluc reporter destabilization hit call (RPS6KA1) 0 | kinase-Nluc reporter destabilization hit call (SPHK1) 0 | kinase-Nluc reporter destabilization hit call (SRC) 0 | kinase-Nluc reporter destabilization hit call (STK24) 0 | kinase-Nluc reporter destabilization hit call (STK38) 0 | kinase-Nluc reporter destabilization hit call (SYK) 0 | kinase-Nluc reporter destabilization hit call (TEC) 0 | kinase-Nluc reporter destabilization hit call (TYK2) 0 | kinase-Nluc reporter destabilization hit call (ULK3) 0 | kinase-Nluc reporter destabilization hit call (YES1) 0 | kinase-Nluc reporter destabilization hit call (ZAK) 0 | kinase-Nluc reporter destabilization hit call (ZAP70) 0
1: number of time points (ABL1)
0: number of time points (AKT1)

COc1cc(/C=C/C(=O)NCC(O)c2ccc(O)cc2)ccc1O (stereo not given) [N-Feruloyloctopamine] (2.5 µM)
0: number of time points (ABL1) | number of time points (AKT1)
inactive: kinase-Nluc reporter destabilization hit call (RET) 0 | kinase-Nluc reporter destabilization hit call [1] 0 | kinase-Nluc reporter destabilization hit call (RIOK1) 0 | kinase-Nluc reporter destabilization hit call (RIPK1) 0 | kinase-Nluc reporter destabilization hit call (RIPK2) 0 | kinase-Nluc reporter destabilization hit call (ROR2) 0 | kinase-Nluc reporter destabilization hit call (RPS6KA1) 0 | kinase-Nluc reporter destabilization hit call (SPHK1) 0 | kinase-Nluc reporter destabilization hit call (SRC) 0 | kinase-Nluc reporter destabilization hit call (STK24) 0 | kinase-Nluc reporter destabilization hit call (STK38) 0 | kinase-Nluc reporter destabilization hit call (SYK) 0 | kinase-Nluc reporter destabilization hit call (TEC) 0 | kinase-Nluc reporter destabilization hit call (TYK2) 0 | kinase-Nluc reporter destabilization hit call (ULK3) 0 | kinase-Nluc reporter destabilization hit call (YES1) 0 | kinase-Nluc reporter destabilization hit call (ZAK) 0 | kinase-Nluc reporter destabilization hit call (ZAP70) 0

Cn1cc(-c2ccc3nnc(Sc4ccc5ncccc5c4)n3n2)cn1 (10 µM)
inactive: kinase-Nluc reporter destabilization hit call (RET) 0 | kinase-Nluc reporter destabilization hit call [1] 0 | kinase-Nluc reporter destabilization hit call (RIOK1) 0 | kinase-Nluc reporter destabilization hit call (RIPK1) 0 | kinase-Nluc reporter destabilization hit call (RIPK2) 0 | kinase-Nluc reporter destabilization hit call (ROR2) 0 | kinase-Nluc reporter destabilization hit call (RPS6KA1) 0 | kinase-Nluc reporter destabilization hit call (SPHK1) 0 | kinase-Nluc reporter destabilization hit call (SRC) 0 | kinase-Nluc reporter destabilization hit call (STK24) 0 | kinase-Nluc reporter destabilization hit call (STK38) 0 | kinase-Nluc reporter destabilization hit call (SYK) 0 | kinase-Nluc reporter destabilization hit call (TEC) 0 | kinase-Nluc reporter destabilization hit call (TYK2) 0 | kinase-Nluc reporter destabilization hit call (ULK3) 0 | kinase-Nluc reporter destabilization hit call (YES1) 0 | kinase-Nluc reporter destabilization hit call (ZAK) 0 | kinase-Nluc reporter destabilization hit call (ZAP70) 0
0: number of time points (ABL1) | number of time points (AKT1)

CCN1CCN(Cc2ccc(Nc3ncc(F)c(-c4cc(F)c5nc(C)n(C(C)C)c5c4)n3)nc2)CC1 [Abemaciclib (methanesulfonate)] (10 µM)
0: number of time points (AKT1)
inactive: kinase-Nluc reporter destabilization hit call (RET) 0 | kinase-Nluc reporter destabilization hit call [1] 0 | kinase-Nluc reporter destabilization hit call (RIOK1) 0 | kinase-Nluc reporter destabilization hit call (RIPK1) 0 | kinase-Nluc reporter destabilization hit call (RIPK2) 0 | kinase-Nluc reporter destabilization hit call (ROR2) 0 | kinase-Nluc reporter destabilization hit call (RPS6KA1) 0 | kinase-Nluc reporter destabilization hit call (SPHK1) 0 | kinase-Nluc reporter destabilization hit call (SRC) 0 | kinase-Nluc reporter destabilization hit call (STK24) 0 | kinase-Nluc reporter destabilization hit call (STK38) 0 | kinase-Nluc reporter destabilization hit call (SYK) 0 | kinase-Nluc reporter destabilization hit call (TEC) 0 | kinase-Nluc reporter destabilization hit call (TYK2) 0 | kinase-Nluc reporter destabilization hit call (ULK3) 0 | kinase-Nluc reporter destabilization hit call (YES1) 0 | kinase-Nluc reporter destabilization hit call (ZAK) 0 | kinase-Nluc reporter destabilization hit call (ZAP70) 0
2: number of time points (ABL1)

c1cncc(CN2CCC(n3ncc4c(N5CCOCC5)nc(-c5ccc6[nH]ccc6c5)nc43)CC2)c1 (10 µM)
5: number of time points (ABL1)
0: number of time points (AKT1)
inactive: kinase-Nluc reporter destabilization hit call (RET) 0 | kinase-Nluc reporter destabilization hit call [1] 0 | kinase-Nluc reporter destabilization hit call (RIOK1) 0 | kinase-Nluc reporter destabilization hit call (RIPK1) 0 | kinase-Nluc reporter destabilization hit call (RIPK2) 0 | kinase-Nluc reporter destabilization hit call (ROR2) 0 | kinase-Nluc reporter destabilization hit call (RPS6KA1) 0 | kinase-Nluc reporter destabilization hit call (SPHK1) 0 | kinase-Nluc reporter destabilization hit call (SRC) 0 | kinase-Nluc reporter destabilization hit call (STK24) 0 | kinase-Nluc reporter destabilization hit call (STK38) 0 | kinase-Nluc reporter destabilization hit call (SYK) 0 | kinase-Nluc reporter destabilization hit call (TEC) 0 | kinase-Nluc reporter destabilization hit call (TYK2) 0 | kinase-Nluc reporter destabilization hit call (ULK3) 0 | kinase-Nluc reporter destabilization hit call (YES1) 0 | kinase-Nluc reporter destabilization hit call (ZAK) 0 | kinase-Nluc reporter destabilization hit call (ZAP70) 0

CCN1CCC(n2cc(CNc3cc(Cl)c4ncc(C#N)c(Nc5ccc(F)c(Cl)c5)c4c3)nn2)CC1 [Cot inhibitor-2] (2.5 µM)
inactive: kinase-Nluc reporter destabilization hit call (RET) 0 | kinase-Nluc reporter destabilization hit call [1] 0 | kinase-Nluc reporter destabilization hit call (RIOK1) 0 | kinase-Nluc reporter destabilization hit call (RIPK1) 0 | kinase-Nluc reporter destabilization hit call (RIPK2) 0 | kinase-Nluc reporter destabilization hit call (ROR2) 0 | kinase-Nluc reporter destabilization hit call (RPS6KA1) 0 | kinase-Nluc reporter destabilization hit call (SPHK1) 0 | kinase-Nluc reporter destabilization hit call (SRC) 0 | kinase-Nluc reporter destabilization hit call (STK24) 0 | kinase-Nluc reporter destabilization hit call (STK38) 0 | kinase-Nluc reporter destabilization hit call (SYK) 0 | kinase-Nluc reporter destabilization hit call (TEC) 0 | kinase-Nluc reporter destabilization hit call (TYK2) 0 | kinase-Nluc reporter destabilization hit call (ULK3) 0 | kinase-Nluc reporter destabilization hit call (YES1) 0 | kinase-Nluc reporter destabilization hit call (ZAK) 0 | kinase-Nluc reporter destabilization hit call (ZAP70) 0
0: number of time points (ABL1) | number of time points (AKT1)
